Test results as given in PMC7176290.
These are yes or no findings as the source states them, for the method shown. In cells and extracts the contact can be indirect. Binding calls can cover weak binding; strength is not graded here. Tags and fused reporters may be left off the sequences shown.

Target: T1, Flag-Rab5c (zebrafish) (UniProt Q7ZVP2)
T1 sequence: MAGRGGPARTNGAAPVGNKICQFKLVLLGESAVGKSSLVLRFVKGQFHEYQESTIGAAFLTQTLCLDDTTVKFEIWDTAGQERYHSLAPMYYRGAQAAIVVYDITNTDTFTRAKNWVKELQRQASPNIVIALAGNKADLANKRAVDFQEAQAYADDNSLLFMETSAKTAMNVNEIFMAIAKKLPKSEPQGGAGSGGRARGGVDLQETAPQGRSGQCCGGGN
Test: co-IP; 293T cells co-transfected with flag-tagged rab5c and myc-tagged appl1; lysate in IP lysis buffer (50 mM Tris-HCl pH 7.4, 150 mM NaCl, 1 mM EDTA, 0.5 mM DTT, 0.5% NP-40, 5% glycerol) incubated with anti-FLAG M2 Affinity Gel for 4 hours at 4°C; western blot with anti-Flag and anti-Myc

Appl1-Myc was tested, and the binding was “binds”.
